Two substances from article PMC8684771 can be followed below.

Protein sequences, listed by entry. Tags and fused reporters are not part of them.
UniProt Q8R4B8: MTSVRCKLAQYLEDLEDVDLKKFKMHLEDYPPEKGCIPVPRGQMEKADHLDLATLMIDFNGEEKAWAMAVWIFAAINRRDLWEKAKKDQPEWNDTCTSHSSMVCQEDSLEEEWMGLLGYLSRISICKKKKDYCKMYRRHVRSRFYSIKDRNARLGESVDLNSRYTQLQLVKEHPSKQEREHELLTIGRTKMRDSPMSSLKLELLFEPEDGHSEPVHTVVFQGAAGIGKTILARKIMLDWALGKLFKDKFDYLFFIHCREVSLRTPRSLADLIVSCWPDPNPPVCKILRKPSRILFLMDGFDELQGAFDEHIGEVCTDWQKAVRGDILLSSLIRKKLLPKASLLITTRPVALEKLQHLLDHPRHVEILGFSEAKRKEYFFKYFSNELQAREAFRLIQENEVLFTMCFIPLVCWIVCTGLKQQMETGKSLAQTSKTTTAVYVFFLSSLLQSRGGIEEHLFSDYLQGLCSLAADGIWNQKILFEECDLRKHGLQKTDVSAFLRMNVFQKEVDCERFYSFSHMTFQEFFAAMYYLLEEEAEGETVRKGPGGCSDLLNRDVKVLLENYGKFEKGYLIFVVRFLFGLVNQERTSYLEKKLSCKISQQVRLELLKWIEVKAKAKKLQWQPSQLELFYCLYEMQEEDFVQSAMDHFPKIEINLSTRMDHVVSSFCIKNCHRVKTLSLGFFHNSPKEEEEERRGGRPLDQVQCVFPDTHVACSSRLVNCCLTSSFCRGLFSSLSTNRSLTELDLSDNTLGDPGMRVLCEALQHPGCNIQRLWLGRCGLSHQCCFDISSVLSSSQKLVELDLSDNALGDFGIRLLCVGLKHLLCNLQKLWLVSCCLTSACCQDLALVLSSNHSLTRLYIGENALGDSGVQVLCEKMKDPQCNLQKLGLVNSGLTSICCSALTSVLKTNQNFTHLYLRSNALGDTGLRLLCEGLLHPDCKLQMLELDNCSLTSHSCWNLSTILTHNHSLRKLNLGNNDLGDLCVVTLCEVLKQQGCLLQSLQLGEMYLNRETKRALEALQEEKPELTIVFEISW
UniProt P12813: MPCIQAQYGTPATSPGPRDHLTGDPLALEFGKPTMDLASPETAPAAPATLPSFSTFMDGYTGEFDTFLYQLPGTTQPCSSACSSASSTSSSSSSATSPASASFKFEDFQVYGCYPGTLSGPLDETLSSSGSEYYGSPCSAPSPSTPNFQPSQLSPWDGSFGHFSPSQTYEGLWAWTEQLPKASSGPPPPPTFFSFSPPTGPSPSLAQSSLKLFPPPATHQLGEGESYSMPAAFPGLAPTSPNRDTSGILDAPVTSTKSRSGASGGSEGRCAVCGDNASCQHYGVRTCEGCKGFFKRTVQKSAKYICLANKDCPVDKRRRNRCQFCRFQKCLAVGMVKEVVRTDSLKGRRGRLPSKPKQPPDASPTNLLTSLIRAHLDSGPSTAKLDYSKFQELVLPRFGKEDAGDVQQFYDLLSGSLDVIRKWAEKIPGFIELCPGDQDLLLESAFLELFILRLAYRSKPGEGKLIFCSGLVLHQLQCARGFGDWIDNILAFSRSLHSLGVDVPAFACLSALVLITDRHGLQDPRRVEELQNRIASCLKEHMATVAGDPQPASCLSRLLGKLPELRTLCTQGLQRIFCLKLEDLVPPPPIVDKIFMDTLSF

These are yes or no findings as the source states them, for the method shown. In cells and extracts the contact can be indirect. Some entries that bind do so weakly or less than the wild type.

Test [1] deals with Flag-NLRP3 (UniProt Q8R4B8). The experiment in a line: co-IP; GFP-NR4A1 and Flag-NLRP3 transfected in HEK293T cells; with Nigericin or ATP.
In test [2] the target is NLR family, pyrin domain containing 3 (NLRP3) (mouse (endogenous in BMDMs)) (UniProt Q8R4B8). The experiment in a line: co-IP; IP and immunoblot of endogenous proteins in BMDMs; LPS priming (200 ng/ml, 4 h), Nigericin (10 uM) or ATP; WT and NR4A1-/- cells; with or without 6-MP or Csn-B. A general note: In western blotting, separated proteins are transferred to a membrane and probed.

On to GFP-NR4A1 (from UniProt P12813 1-601), for which the binding entry in test [1] was “binds”. Consider NR4A1 (from UniProt P12813 1-601), for which the binding entry in test [2] was “binds”.
